These are yes or no findings as the source states them, for the method shown. Some binding calls cover weakened binding; strength is not graded here.
What was measured:
[1] = target: human DNA polymerase δ catalytic subunit p125 (human) (UniProt P28340); test: immunoaffinity chromatography and Mono Q co-purification; subunits co-expressed in Sf9 from a single MultiBac baculovirus; lysate on 78F5 anti-p125 agarose, wash TGEE with 0.1 M NaCl, elution 0.4 M NaCl and 30% ethylene glycol; Mono Q gradient 0.1 to 1 M NaCl; 12.5% SDS-PAGE, silver staining
[2] = target: native DNA polymerase δ subunit p125 of HeLa cells (human (endogenous in HeLa)) (UniProt P28340); test: immunoaffinity chromatography with Western blot; lysate of HeLa cells (untreated, or UV-C 20 J/m^2 and harvested 4 hours later) on anti-p125 agarose at 4°C, wash TGEE with 0.1 M NaCl, elution 0.4 M NaCl and 30% ethylene glycol; fractions blotted for p12, p125, p50 and p68

Sequences of proteins named here, by UniProt entry; tags and fusion partners are left off. A change or cut given only in a name is not applied to a line headed by its entry.
UniProt P28340: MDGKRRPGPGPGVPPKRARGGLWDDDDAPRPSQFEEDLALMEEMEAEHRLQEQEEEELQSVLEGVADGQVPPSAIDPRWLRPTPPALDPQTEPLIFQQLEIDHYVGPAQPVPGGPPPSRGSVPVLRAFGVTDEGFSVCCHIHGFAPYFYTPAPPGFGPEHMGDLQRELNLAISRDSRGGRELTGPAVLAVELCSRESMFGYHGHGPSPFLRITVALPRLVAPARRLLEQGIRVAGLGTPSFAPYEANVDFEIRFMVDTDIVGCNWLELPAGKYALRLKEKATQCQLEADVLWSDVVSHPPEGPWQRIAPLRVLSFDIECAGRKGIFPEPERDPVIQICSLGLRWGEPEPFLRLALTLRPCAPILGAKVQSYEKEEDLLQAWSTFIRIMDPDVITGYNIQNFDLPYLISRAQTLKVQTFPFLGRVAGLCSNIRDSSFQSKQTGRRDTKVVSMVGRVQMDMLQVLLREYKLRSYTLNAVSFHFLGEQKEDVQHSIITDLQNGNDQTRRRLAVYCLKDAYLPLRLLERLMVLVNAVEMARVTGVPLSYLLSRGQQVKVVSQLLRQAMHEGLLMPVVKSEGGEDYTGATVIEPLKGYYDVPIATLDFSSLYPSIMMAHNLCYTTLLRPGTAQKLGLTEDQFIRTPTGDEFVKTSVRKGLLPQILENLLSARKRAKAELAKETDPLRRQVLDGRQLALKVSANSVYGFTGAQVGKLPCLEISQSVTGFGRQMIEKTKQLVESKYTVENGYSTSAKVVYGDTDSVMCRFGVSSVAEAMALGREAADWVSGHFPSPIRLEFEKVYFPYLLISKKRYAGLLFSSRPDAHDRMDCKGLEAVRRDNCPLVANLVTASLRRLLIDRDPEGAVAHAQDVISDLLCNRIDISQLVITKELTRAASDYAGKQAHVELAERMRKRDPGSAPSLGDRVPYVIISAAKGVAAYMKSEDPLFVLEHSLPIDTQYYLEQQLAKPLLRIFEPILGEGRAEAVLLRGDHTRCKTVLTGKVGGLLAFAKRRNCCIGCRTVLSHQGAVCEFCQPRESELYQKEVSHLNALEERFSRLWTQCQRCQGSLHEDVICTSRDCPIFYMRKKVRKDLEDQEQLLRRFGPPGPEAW

Row | binding [1] | binding [2] | Binder
1 | binds |  | human DNA polymerase δ subunit p12 (protein, UniProt Q9HCU8 1-107) MGRKRLITDSYPVVKRREGPAGHSKGELAPELGEEPQPRDEEEAELELLRQFDLAWQYGPCTGITRLQRWCRAKQMGLEPPPEVWQVLKTHPGDPRFQCSLWHLYPL
2 |  | binds | native DNA polymerase δ subunit p12 of HeLa cells (protein, UniProt Q9HCU8 1-107) MGRKRLITDSYPVVKRREGPAGHSKGELAPELGEEPQPRDEEEAELELLRQFDLAWQYGPCTGITRLQRWCRAKQMGLEPPPEVWQVLKTHPGDPRFQCSLWHLYPL
3 | binds |  | human DNA polymerase δ subunit p68 (protein, UniProt Q15054 1-466) MADQLYLENIDEFVTDQNKIVTYKWLSYTLGVHVNQAKQMLYDYVERKRKENSGAQLHVTYLVSGSLIQNGHSCHKVAVVREDKLEAVKSKLAVTASIHVYSIQKAMLKDSGPLFNTDYDILKSNLQNCSKFSAIQCAAAVPRAPAESSSSSKKFEQSHLHMSSETQANNELTTNGHGPPASKQVSQQPKGIMGMFASKAAAKTQETNKETKTEAKEVTNASAAGNKAPGKGNMMSNFFGKAAMNKFKVNLDSEQAVKEEKIVEQPTVSVTEPKLATPAGLKKSSKKAEPVKVLQKEKKRGKRVALSDDETKETENMRKKRRRIKLPESDSSEDEVFPDSPGAYEAESPSPPPPPSPPLEPVPKTEPEPPSVKSSSGENKRKRKRVLKSKTYLDGEGCIVTEKVYESESCTDSEEELNMKTSSVHRPPAMTVKKEPREERKGPKKGTAALGKANRQVSITGFFQRK
4 |  | binds | native DNA polymerase δ subunit p68 of HeLa cells (protein, UniProt Q15054 1-466) MADQLYLENIDEFVTDQNKIVTYKWLSYTLGVHVNQAKQMLYDYVERKRKENSGAQLHVTYLVSGSLIQNGHSCHKVAVVREDKLEAVKSKLAVTASIHVYSIQKAMLKDSGPLFNTDYDILKSNLQNCSKFSAIQCAAAVPRAPAESSSSSKKFEQSHLHMSSETQANNELTTNGHGPPASKQVSQQPKGIMGMFASKAAAKTQETNKETKTEAKEVTNASAAGNKAPGKGNMMSNFFGKAAMNKFKVNLDSEQAVKEEKIVEQPTVSVTEPKLATPAGLKKSSKKAEPVKVLQKEKKRGKRVALSDDETKETENMRKKRRRIKLPESDSSEDEVFPDSPGAYEAESPSPPPPPSPPLEPVPKTEPEPPSVKSSSGENKRKRKRVLKSKTYLDGEGCIVTEKVYESESCTDSEEELNMKTSSVHRPPAMTVKKEPREERKGPKKGTAALGKANRQVSITGFFQRK

— publication PMC3377666
